For 26 compounds, survivor count and T/C results are on record in PubChem BioAssay AID256 (DTP/NCI, 2004).

The list shows only some results of the screen, not a fair sample: it is rich in T/C values a quarter to a half above the control, in often repeated tests (any T/C) and in doses without a T/C. Further doses and runs are listed elsewhere. T/C is the treated group as % of the vehicle group. Some doses have a count of surviving animals in place of a T/C: the source holds a T/C of zero for them, seemingly a mark for toxic or unscored doses. Some doses without a T/C left all or most animals alive at the check, yet need not have been tolerated: survival well below the control is almost never listed, so the zero probably covers shortened survival too. Counts of survivors are from the toxicity check (mostly the fifth day) where no day follows; animals may have died later. Schedules are NCI's codes, read here as Q, the interval in days (D) or hours (H), X, the number of doses. Some doses were run more than once; the values are given in rising order. For survival time, this PubChem deposit counts one and a half times the control or more as active, and values a quarter to a half above the control carry no call in these data; other NCI protocols may use other cut-offs. Some T/C values are followed by the survivors on the day toxicity was checked, most often the fifth; where none is given, no animal had died by that day.

In this test the test system is CD2F1 mice, L1210 leukemia ip, survival T/C. The test is described as follows: NCI In Vivo Anticancer Drug Screen. Data for tumor model L1210 Leukemia (intraperitoneal) in CD2F1 (CDF1) mice. The conditions noted are these: higher T/C = longer survival. Summed up:
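Vehicle-treated tumor-bearing mice served as controls (C) for compound-treated mice (T). Reported figure is T divided by C.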

Setting [1] is: T/C endpoint: mean survival time, dose: 400.0 mg/kg/injection, schedule: Q04DX003 (ip), vehicle: saline.
The mark [2] stands for this setting: T/C endpoint: mean survival time, dose: 25.0 mg/kg/injection, schedule: Q01DX009 (ip), vehicle: saline with Tween-80.
Setting [3] is: T/C endpoint: mean survival time, dose: 50.0 mg/kg/injection, schedule: Q01DX009 (ip), vehicle: saline with Tween-80.
Setting [4] is: T/C endpoint: median survival time, dose: 50.0 mg/kg/injection, schedule: Q01DX009 (ip), vehicle: saline with Tween-80.
Where [5] appears, read: T/C endpoint: median survival time, dose: 100.0 mg/kg/injection, schedule: Q01DX009 (ip), vehicle: saline with Tween-80.
Setting [6] is: T/C endpoint: mean survival time, dose: 200.0 mg/kg/injection, schedule: Q04DX003 (ip), vehicle: saline with Tween-80.
Setting [7] is: T/C endpoint: mean survival time, dose: 400.0 mg/kg/injection, schedule: Q04DX003 (ip), vehicle: saline with Tween-80.
Setting [8] is: T/C endpoint: mean survival time, dose: 200.0 mg/kg/injection, schedule: Q01DX001 (ip), vehicle: saline with Tween-80.
The mark [9] stands for this setting: T/C endpoint: mean survival time, dose: 400.0 mg/kg/injection, schedule: Q04DX002 (ip), vehicle: saline with Tween-80.
[10] abbreviates: T/C endpoint: mean survival time, dose: 100.0 mg/kg/injection, schedule: Q04DX003 (ip), vehicle: saline with Tween-80.
Setting [11] is: T/C endpoint: mean survival time, dose: 300.0 mg/kg/injection, schedule: Q01DX001 (ip), vehicle: saline.
Setting [12] is: T/C endpoint: mean survival time, dose: 100.0 mg/kg/injection, schedule: Q04DX003 (ip), vehicle: distilled water + Tween-80.
Where [13] appears, read: T/C endpoint: mean survival time, dose: 400.0 mg/kg/injection, schedule: Q01DX001 (ip), vehicle: saline with Tween-80.

In the case of `CCOC(=O)CN(CC(=O)OCC)c1ccc(C(C)=O)cc1`, the survivor count under setting [1] was 0 of 6.

For the compound `Nc1nnc[se]1`, the T/C reads like this: under setting [2], 125 and 135 % of control; under setting [3], 144 % of control; under setting [4], 134 % of control; under setting [5], 125 % of control. Besides, the survivor count (T/C endpoint: mean survival time, dose: 100.0 mg/kg/injection, schedule: Q01DX009 (ip), vehicle: saline with Tween-80) was 6 of 6.

For the compound `Cc1ccc(S(=O)(=O)NOCCCCONS(=O)(=O)c2ccc(C)cc2)cc1`, the survivor count is recorded as 6 of 6 under setting [6] and 6 of 6 under setting [7].

Turning to `CC1(C)COC(=O)N1`, the survivor count was 6 of 6 (T/C endpoint: mean survival time, dose: 200.0 mg/kg/injection, schedule: Q04DX003 (ip), vehicle: saline); 0 of 6 (T/C endpoint: mean survival time, dose: 300.0 mg/kg/injection, schedule: Q01DX009 (ip), vehicle: saline with Tween-80); 0 of 6 under setting [1].

With `CCOC(=O)c1ccc(NC(=O)N2CCC(CCCc3ccccc3)CC2)cc1`, the survivor count is 3 of 6 and 6 of 6 under setting [8]; 3 of 3 (T/C endpoint: mean survival time, dose: 400.0 mg/kg/injection, schedule: Q01DX009 (ip), vehicle: saline with Tween-80); 3 of 3 under setting [9].

Consider `CCCCCCCCCCCCNC(=O)c1ccc[n+](Cc2ccc(Cl)c(Cl)c2)c1`, for which the survivor count reads like this: under setting [2], 2 of 6; under setting [3], 2 of 6; under setting [10], 1 of 6; under setting [6], 0 of 6; under setting [7], 0 of 6.

For the compound `CCC1c2cc(Oc3c(O)c(OC)cc4c3C(CC)N(C)CC4)c(OC)cc2CCN1C` (configuration not stated), the survivor count (T/C endpoint: mean survival time, dose: 75.0 mg/kg/injection, schedule: Q01DX001 (ip), vehicle: saline) was 0 of 6; the survivor count (T/C endpoint: mean survival time, dose: 150.0 mg/kg/injection, schedule: Q01DX001 (ip), vehicle: saline) is listed as 0 of 6; the survivor count under setting [11] is recorded as 0 of 6.

Consider `CC(C)(O)/C=C/C(=O)[C@](C)(O)[C@H]1[C@H](O)C[C@@]2(C)[C@@H]3CC=C4[C@@H](C=C(O)C(=O)C4(C)C)[C@]3(C)C(=O)C[C@]12C`, for which the survivor count reads like this: (T/C endpoint: median survival time, dose: 2.0 mg/kg/injection, schedule: Q01DX005 (ip), vehicle: water) 0 of 6; (T/C endpoint: median survival time, dose: 4.0 mg/kg/injection, schedule: Q01DX005 (ip), vehicle: water) 0 of 6; (T/C endpoint: median survival time, dose: 8.0 mg/kg/injection, schedule: Q01DX005 (ip), vehicle: water) 0 of 6.

In the case of `CC1CC(C)(O)CC(C(O)CC2CC(=O)NC(=O)C2)C1=O` (configuration not stated), under “T/C endpoint: mean survival time, dose: 0.32 mg/kg/injection, schedule: Q01DX009 (ip), vehicle: saline”, the T/C was 129 and 133 % of control.

On to `[Cl][Pt+2][Cl].[NH-]CC1CCCC[N-]1` (configuration not stated), for which the T/C runs as follows: (T/C endpoint: mean survival time, dose: 25.0 mg/kg/injection, schedule: Q04DX003 (ip), vehicle: distilled water + Tween-80) 142 % of control; (T/C endpoint: mean survival time, dose: 50.0 mg/kg/injection, schedule: Q04DX003 (ip), vehicle: distilled water + Tween-80) 141 % of control; under setting [12], 135 % of control; (T/C endpoint: median survival time, dose: 6.25 mg/kg/injection, schedule: Q04DX002 (ip), vehicle: saline) 137 % of control. The survivor count is on record as 6 of 6 under setting [12]; 6 of 6 (T/C endpoint: mean survival time, dose: 200.0 mg/kg/injection, schedule: Q04DX003 (ip), vehicle: distilled water + Tween-80); 5 of 6 (T/C endpoint: mean survival time, dose: 400.0 mg/kg/injection, schedule: Q04DX003 (ip), vehicle: distilled water + Tween-80).

Regarding `Cc1ccc(-c2csc(/N=C/c3ccccc3O)n2)cc1.Cc1ccc(-c2csc(/N=C/c3ccccc3O)n2)cc1.[Cu]`, under setting [8], the survivor count is reported as 3 of 3.

On to `O=C(Oc1ccccc1)c1cc(O)c(O)c(O)c1`, for which the survivor count (T/C endpoint: median survival time, dose: 400.0 mg/kg/injection, schedule: Q01DX009 (ip), vehicle: saline with Tween-80) was 3 of 6.

As to `c1ccc(CNCCNCc2ccccn2)nc1`, the survivor count by setting is: (T/C endpoint: mean survival time, dose: 50.0 mg/kg/injection, schedule: Q04DX002 (ip), vehicle: saline with Tween-80) 0 of 3; (T/C endpoint: mean survival time, dose: 100.0 mg/kg/injection, schedule: Q04DX002 (ip), vehicle: saline with Tween-80) 0 of 3; (T/C endpoint: mean survival time, dose: 200.0 mg/kg/injection, schedule: Q04DX002 (ip), vehicle: saline with Tween-80) 0 of 3; under setting [9], 0 of 3.

For the compound `CC(C)(C)OOC(=O)c1ccccn1`, the survivor count under setting [9] was 0 of 3.

`O=P(Oc1ccccc1)(Oc1ccccc1)N(CCCl)CCCl`: the T/C runs as follows: (T/C endpoint: mean survival time, dose: 50.0 mg/kg/injection, schedule: Q01DX009 (ip), vehicle: water) 125 % of control; (T/C endpoint: mean survival time, dose: 100.0 mg/kg/injection, schedule: Q01DX009 (ip), vehicle: water) 146 % of control [5 of 6 alive]. The survivor count runs as follows: (T/C endpoint: mean survival time, dose: 400.0 mg/kg/injection, schedule: Q01DX009 (ip), vehicle: water) 0 of 6 and 1 of 6; (T/C endpoint: mean survival time, dose: 500.0 mg/kg/injection, schedule: Q01DX001 (ip), vehicle: distilled water + Tween-80) 3 of 6; (T/C endpoint: mean survival time, dose: 750.0 mg/kg/injection, schedule: Q01DX001 (ip), vehicle: distilled water + Tween-80) 0 of 6.

Consider `NCCc1nc(N)nc(N)c1-c1ccc(Cl)cc1`, for which the survivor count under setting [13] is reported as 1 of 6.

As to `CC(C)c1cc(C(=O)O)c(O)c(C(C)C)c1.CC(C)c1cc(C(=O)O)c(O)c(C(C)C)c1.[Cu]`, the survivor count is, setting by setting: under setting [4], 3 of 6; under setting [5], 0 of 6.

With `O=C(CF)[O][Sb]([O]C(=O)CF)([c]1ccccc1)([c]1ccccc1)[c]1ccccc1`, the survivor count by setting is: (T/C endpoint: mean survival time, dose: 20.0 mg/kg/injection, schedule: Q01DX009 (ip), vehicle: saline with Tween-80) 2 of 6; under setting [10], 0 of 6; under setting [6], 0 of 6; under setting [7], 0 of 6.

On to `O=C(OC1C=CC2CCC1C2)c1ccc([N+](=O)[O-])cc1` (configuration not stated), for which the survivor count under setting [7] was 6 of 6.

For `CC1OC(=O)C(C(C)C)NC(=O)C(C(C)C)OC(=O)C(C(C)C)NC(=O)C(C)OC(=O)C(C(C)C)NC(=O)C(C(C)C)OC(=O)C(C(C)C)NC(=O)C(C)OC(=O)C(C(C)C)NC(=O)C(C(C)C)OC(=O)C(C(C)C)NC1=O` (configuration not stated), where the note is “T/C endpoint: mean survival time, dose: 10.0 mg/kg/injection, schedule: Q01DX009 (ip), vehicle: saline with Tween-80”, the survivor count is listed as 3 of 6. For the same compound, the T/C (T/C endpoint: mean survival time, dose: 40.0 mg/kg/injection, schedule: Q01DX009 (ip), vehicle: saline with Tween-80) is 128 % of control.

In the case of `CCCCCCCCCCCCCCNCCC(=O)O`, the survivor count under setting [11] is recorded as 0 of 6.

On to `CSC(=O)C(=O)SC`, for which the survivor count under setting [8] was 3 of 6.

Take `Cc1ccc2c(c1Oc1ccc(S(N)(=O)=O)cc1)C(=O)c1ccccc1C2=O`: the survivor count is recorded as 6 of 6 (T/C endpoint: mean survival time, dose: 50.0 mg/kg/injection, schedule: Q04DX003 (ip), vehicle: saline with Tween-80); 6 of 6 (T/C endpoint: mean survival time, dose: 200.0 mg/kg/injection, schedule: Q04DX003 (ip), vehicle: saline sonified); 6 of 6 under setting [6].

For `N=c1ccc2ccccc2n1O`, the survivor count is on record as 0 of 6 (T/C endpoint: mean survival time, dose: 100.0 mg/kg/injection, schedule: Q04DX003 (ip), vehicle: other); 0 of 6 (T/C endpoint: mean survival time, dose: 200.0 mg/kg/injection, schedule: Q04DX003 (ip), vehicle: other); 0 of 6 (T/C endpoint: mean survival time, dose: 400.0 mg/kg/injection, schedule: Q04DX003 (ip), vehicle: other).

Turning to `CCOC(=O)C[Se]CC(=O)OCC`, the survivor count under setting [13] was 1 of 3.

Take `CN(C)N=Nc1ccccc1C(=O)NCC#N`: for the setting “T/C endpoint: mean survival time, dose: 75.0 mg/kg/injection, schedule: Q01DX009 (ip), vehicle: Klucel (hydroxypropylcellulose) (HPC)”, the T/C is 127 % of control. Moreover, the survivor count runs as follows: (T/C endpoint: mean survival time, dose: 150.0 mg/kg/injection, schedule: Q01DX009 (ip), vehicle: Klucel (hydroxypropylcellulose) (HPC)) 0 of 6; (T/C endpoint: mean survival time, dose: 300.0 mg/kg/injection, schedule: Q01DX009 (ip), vehicle: Klucel (hydroxypropylcellulose) (HPC)) 0 of 6.
